PubChem BioAssay AID1259424 – University of Nebraska Medical Center | 2018
Screen: 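Find knockdowns that reproduce the expression shifts seen after KSR1 loss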 (primary screen). Cells: human HCT116 colon cancer cells. Reagent: siRNA pool against human genes, 50 nM. Measured: 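Six signature mRNAs by branched-DNA multiplex assay, scaled to two housekeeping genes and non-targeting median, log2; matched to mean KSR1 knockdown profile by Pearson correlation and euclidean distance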. Reading the numbers: mean correlation with KSR1 profile and KSR1 correlation: higher = expression change more like KSR1 knockdown; mean distance from KSR1 profile: higher = expression change less like KSR1 knockdown.
The whole screen tested about 14,000 reagents; below is an unselected part. 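Higher correlation or smaller distance means closer resemblance to KSR1 loss; control wells, including KSR1 knockdowns, recur on many plates.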 Reagents against one gene are numbered here. No sequences are given here. Not given: the time to read-out.

no.	gene	reagent	mean correlation with KSR1 profile	mean distance from KSR1 profile	KSR1 correlation, replicate 1	KSR1 correlation, replicate 2	KSR1 correlation, replicate 3
1	ANKK1 (GeneID 255239)	1	0.437	2.58	0.653	0.113	0.0672
2	LCOR (GeneID 84458)	1	-0.419	3.09	-0.346	-0.498	-0.511
3	LCOR (GeneID 84458)	2	0.567	2.92	0.543	0.739	0.336
4	KIR2DL4 (GeneID 3805)	1	0.258	1.23	0.0588	0.0374	0.437
5	NDUFB2 (GeneID 4708)	1	-0.277	2.94	-0.0801	-0.264	-0.3
6	EMC9 (GeneID 51016)	1	-0.742	1.17	-0.605	-0.395	-0.229
7	FASTKD4 (GeneID 9238)	1	-0.499	4.29	-0.354	-0.513	-0.603
8	CREM (GeneID 1390)	1	-0.55	2.52	-0.185	-0.169	-0.832
9	DNAJC17 (GeneID 55192)	1	-0.12	3.93	0.00404	-0.185	-0.345
10	CABP5 (GeneID 56344)	1	-0.155	1.67	-0.0674	-0.151	-0.0969
11	SEMG1 (GeneID 6406)	1	-0.131	2.79	-0.163	-0.204	0.0218
12	SLC38A7 (GeneID 55238)	1	-0.973	2.39	-0.932	-0.952	-0.918
13	ABCA8 (GeneID 10351)	1	-0.577	2.53	-0.543	-0.351	-0.698
14	CPNE3 (GeneID 8895)	1	0.22	1.48	0.0711	0.374	0.146
15	MAFF (GeneID 23764)	1	0.766	1.04	0.85	0.531	0.0781
16	NPC1L1 (GeneID 29881)	1	-0.0595	3.41	-0.41	-0.427	-0.0616
17	WNT5A (GeneID 7474)	1	-0.762	2.63	-0.801	-0.777	-0.775
18	MMP23A (GeneID 8511)	1	0.376	1.91	0.395	0.122	0.341
19	OR7E35P (GeneID 391632)	1	-0.307	1.9	-0.346	-0.454	-0.192
20	PDC (GeneID 5132)	1	0.265	1.98	0.299	0.169	0.429
21	KREMEN2 (GeneID 79412)	1	-0.83	2.78	-0.864	-0.851	-0.904
22	E4F1 (GeneID 1877)	1	0.00696	1.83	-0.0963	0.666	-0.0601
23	CYP2D6 (GeneID 1565)	1	-0.123	3.72	-0.0556	-0.0397	-0.383
24	ZNHIT2 (GeneID 741)	1	-0.151	1.78	-0.0157	-0.374	-0.137

Continued; the last 3 above are carried over.
no.	gene	reagent	mean correlation with KSR1 profile	mean distance from KSR1 profile	KSR1 correlation, replicate 1	KSR1 correlation, replicate 2	KSR1 correlation, replicate 3
22	E4F1 (GeneID 1877)	1	0.00696	1.83	-0.0963	0.666	-0.0601
23	CYP2D6 (GeneID 1565)	1	-0.123	3.72	-0.0556	-0.0397	-0.383
24	ZNHIT2 (GeneID 741)	1	-0.151	1.78	-0.0157	-0.374	-0.137
25	IGLJ3 (GeneID 28831)	1	-0.313	2.02	-0.365	-0.216	-0.46
26	KCTD16 (GeneID 57528)	1	-0.622	2.69	-0.461	-0.676	-0.545
27	MCL1 (GeneID 4170)	1	-0.492	2.31	-0.543	-0.552	-0.587
28	SLC5A1 (GeneID 6523)	1	-0.538	2.55	-0.5	-0.517	-0.424
29	EXOC1 (GeneID 55763)	1	-0.598	2.08	-0.596	-0.582	-0.613
30	MARK3 (GeneID 4140)	1	0.719	1.62	0.669	0.769	0.793
31	SAT1 (GeneID 6303)	1	0.612	1.82	0.515	0.573	0.562
32	GSTT2 (GeneID 2953)	1	-0.126	1.69	-0.142	-0.21	-0.0665
33	KCNJ2 (GeneID 3759)	1	-0.404	2.26	-0.482	-0.147	-0.249
34	CNN1 (GeneID 1264)	1	-0.142	1.73	-0.0868	0.00896	-0.441
35	GCNT3 (GeneID 9245)	1	-0.523	3.11	-0.697	-0.349	-0.43
36	FLCN (GeneID 201163)	1	-0.242	2.26	-0.407	-0.318	-0.157
37	RMND5A (GeneID 64795)	1	0.0287	1.95	-0.367	0.0396	0.0282
38	CCNO (GeneID 10309)	1	0.0694	1.74	0.197	-0.16	0.0889
39	CEBPE (GeneID 1053)	1	-0.43	2.98	-0.407	-0.553	-0.467
40	INTS14 (GeneID 81556)	1	0.614	1.84	0.417	0.53	0.667
41	TPST1 (GeneID 8460)	1	0.341	1.76	0.407	0.413	0.123
42	PTPRH (GeneID 5794)	1	-0.818	3.39	-0.783	-0.901	-0.795
43	FKBP11 (GeneID 51303)	1	-0.386	2.49	-0.537	0.359	-0.217
44	ACVR1B (GeneID 91)	1	0.175	2.32	0.461	0.107	-0.353
45	FSCN1 (GeneID 6624)	1	-0.498	3.01	-0.536	-0.496	-0.613
46	PCED1A (GeneID 64773)	1	-0.543	1.9	-0.639	-0.487	-0.4
47	CPNE7 (GeneID 27132)	1	-0.21	1.98	-0.36	-0.128	0.112
48	LTB4R (GeneID 1241)	1	0.649	1.19	0.758	0.63	0.61
49	AMPD1 (GeneID 270)	1	-0.0297	1.22	-0.345	-0.156	0.348
50	H2BC4 (GeneID 8347)	1	-0.188	2.67	0.0325	-0.284	-0.249
